Among the data in article doi:10.1101/2020.02.18.953711 (bioRxiv, 2020) are binding values, retold here.

The chains behind the UniProt entries cited, without tags or fusion partners. Where a name states a change or a piece, a line headed by the entry shows the natural chain unless it says otherwise.
UniProt Q9C7T7: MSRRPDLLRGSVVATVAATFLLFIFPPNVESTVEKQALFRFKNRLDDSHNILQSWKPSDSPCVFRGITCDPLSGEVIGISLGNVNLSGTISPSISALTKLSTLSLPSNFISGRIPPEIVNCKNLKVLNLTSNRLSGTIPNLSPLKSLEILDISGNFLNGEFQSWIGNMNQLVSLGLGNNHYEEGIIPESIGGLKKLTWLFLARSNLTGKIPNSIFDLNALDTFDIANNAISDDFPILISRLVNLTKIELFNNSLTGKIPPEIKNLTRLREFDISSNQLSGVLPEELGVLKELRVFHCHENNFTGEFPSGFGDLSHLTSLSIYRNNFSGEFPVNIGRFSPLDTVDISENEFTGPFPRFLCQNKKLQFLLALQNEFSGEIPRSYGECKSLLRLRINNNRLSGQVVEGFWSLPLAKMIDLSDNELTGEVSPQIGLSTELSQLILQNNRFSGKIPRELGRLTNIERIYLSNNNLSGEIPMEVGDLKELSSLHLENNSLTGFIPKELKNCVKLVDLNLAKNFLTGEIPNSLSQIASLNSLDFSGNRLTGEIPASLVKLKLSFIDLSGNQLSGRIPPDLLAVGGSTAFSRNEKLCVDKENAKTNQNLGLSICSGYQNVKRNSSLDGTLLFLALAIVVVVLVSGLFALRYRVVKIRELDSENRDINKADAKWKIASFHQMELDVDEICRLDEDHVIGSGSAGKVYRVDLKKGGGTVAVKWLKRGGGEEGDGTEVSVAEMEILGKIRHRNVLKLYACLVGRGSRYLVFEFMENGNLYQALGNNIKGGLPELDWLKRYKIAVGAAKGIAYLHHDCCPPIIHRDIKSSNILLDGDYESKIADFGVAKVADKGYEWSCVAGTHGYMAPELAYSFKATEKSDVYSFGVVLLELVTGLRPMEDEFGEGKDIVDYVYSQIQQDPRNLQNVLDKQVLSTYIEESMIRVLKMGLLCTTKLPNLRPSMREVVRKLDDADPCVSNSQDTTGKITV
UniProt Q9SHI7: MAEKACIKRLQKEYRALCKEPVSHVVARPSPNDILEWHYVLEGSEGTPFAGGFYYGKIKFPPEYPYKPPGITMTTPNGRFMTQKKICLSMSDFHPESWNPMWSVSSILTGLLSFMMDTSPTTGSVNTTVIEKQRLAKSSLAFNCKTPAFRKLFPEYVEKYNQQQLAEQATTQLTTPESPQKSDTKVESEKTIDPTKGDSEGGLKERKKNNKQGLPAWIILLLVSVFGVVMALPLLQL
UniProt Q9FK29: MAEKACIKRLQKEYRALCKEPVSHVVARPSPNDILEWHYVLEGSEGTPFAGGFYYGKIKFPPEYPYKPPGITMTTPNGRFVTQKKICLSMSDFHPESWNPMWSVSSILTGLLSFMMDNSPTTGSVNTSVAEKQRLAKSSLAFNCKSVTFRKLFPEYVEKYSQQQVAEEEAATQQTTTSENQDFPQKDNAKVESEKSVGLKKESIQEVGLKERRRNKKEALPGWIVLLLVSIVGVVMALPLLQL

Experiment [1] deals with T1, NRT1.2^loop-GST (Arabidopsis thaliana) (UniProt Q8H157).
T1 sequence: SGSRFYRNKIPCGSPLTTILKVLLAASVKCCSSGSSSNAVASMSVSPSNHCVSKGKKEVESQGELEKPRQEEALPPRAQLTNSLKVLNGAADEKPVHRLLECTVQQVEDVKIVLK
Briefly: pull-down.

The target in experiment [2] is CEPR2 kinase domain (CEPR2^KD), MbSUS fusion (Arabidopsis thaliana) (UniProt Q9C7T7). The experiment in a line: two-hybrid.

No constants are given. Whether binding was seen depends on the method and setting. Binding calls can cover weak binding; strength is not graded here. Tags and fused reporters may be left off the sequences shown.

Consider “UBC34ΔTM-His (from UniProt Q9SHI7) (enzyme)”, for which the binding result in experiment [1] is recorded as “binds”.
As to “UBC32ΔTM-His (from UniProt Q9LSP7) (enzyme)”, the binding entry in experiment [1] is “binds”.
For “UBC33ΔTM-His (from UniProt Q9FK29) (enzyme)”, the binding entry in experiment [1] is listed as “binds”.

B1: NRT1.2 cytosol loop region (NRT1.2^loop, 232-346 aa), MbSUS fusion (domain or fragment, UniProt Q8H157 232-346)
chain: SGSRFYRNKIPCGSPLTTILKVLLAASVKCCSSGSSSNAVASMSVSPSNHCVSKGKKEVESQGELEKPRQEEALPPRAQLTNSLKVLNGAADEKPVHRLLECTVQQVEDVKIVLK
For B1, the binding entry in experiment [2] is reported as “binds”.
